Measurements: publication doi:10.1101/2025.02.06.636899
No constants are given. Whether binding was seen depends on the method and setting. Binding seen in cells or lysates may run through a third protein.

Molecular target: HA-tagged Q331K human TDP-43 (human) (UniProt Q13148)
Test: co-IP

Q: How did the binding turn out when RAD23A (from UniProt P54725 1-363) was run?
A: Its binding is “no binding”.
